No constants are given. Whether binding was seen depends on the method and setting. Some binding calls cover weakened binding; strength is not graded here. Where a sequence is shown, tags or fusion partners need not be part of it.

The chains behind the UniProt entries cited, without tags or fusion partners. Residues count along the entry.
UniProt Q92854, residues 22-734: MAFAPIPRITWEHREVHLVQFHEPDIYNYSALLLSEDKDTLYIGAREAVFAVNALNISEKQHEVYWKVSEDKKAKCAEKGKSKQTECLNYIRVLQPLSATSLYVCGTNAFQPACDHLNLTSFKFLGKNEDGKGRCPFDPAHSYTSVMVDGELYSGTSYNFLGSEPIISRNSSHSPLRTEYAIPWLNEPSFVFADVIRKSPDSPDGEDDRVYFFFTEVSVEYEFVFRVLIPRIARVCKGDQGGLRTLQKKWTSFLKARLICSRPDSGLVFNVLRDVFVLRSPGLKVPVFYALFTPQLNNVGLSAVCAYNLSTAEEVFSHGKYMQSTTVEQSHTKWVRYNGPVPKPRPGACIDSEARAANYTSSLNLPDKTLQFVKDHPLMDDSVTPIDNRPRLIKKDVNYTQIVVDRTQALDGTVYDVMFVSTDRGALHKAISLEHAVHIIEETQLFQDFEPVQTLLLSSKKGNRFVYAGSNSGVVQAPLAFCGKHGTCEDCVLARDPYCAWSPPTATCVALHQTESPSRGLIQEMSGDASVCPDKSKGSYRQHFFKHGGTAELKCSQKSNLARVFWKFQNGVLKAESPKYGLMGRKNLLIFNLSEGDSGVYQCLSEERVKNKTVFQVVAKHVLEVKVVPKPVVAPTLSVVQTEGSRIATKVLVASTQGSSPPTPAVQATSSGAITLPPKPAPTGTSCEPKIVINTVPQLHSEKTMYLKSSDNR

Test [1] concerns the target T1, recombinant human Plexin B1 with a 6X His tag at C-terminus (human) (UniProt O43157).
T1 sequence: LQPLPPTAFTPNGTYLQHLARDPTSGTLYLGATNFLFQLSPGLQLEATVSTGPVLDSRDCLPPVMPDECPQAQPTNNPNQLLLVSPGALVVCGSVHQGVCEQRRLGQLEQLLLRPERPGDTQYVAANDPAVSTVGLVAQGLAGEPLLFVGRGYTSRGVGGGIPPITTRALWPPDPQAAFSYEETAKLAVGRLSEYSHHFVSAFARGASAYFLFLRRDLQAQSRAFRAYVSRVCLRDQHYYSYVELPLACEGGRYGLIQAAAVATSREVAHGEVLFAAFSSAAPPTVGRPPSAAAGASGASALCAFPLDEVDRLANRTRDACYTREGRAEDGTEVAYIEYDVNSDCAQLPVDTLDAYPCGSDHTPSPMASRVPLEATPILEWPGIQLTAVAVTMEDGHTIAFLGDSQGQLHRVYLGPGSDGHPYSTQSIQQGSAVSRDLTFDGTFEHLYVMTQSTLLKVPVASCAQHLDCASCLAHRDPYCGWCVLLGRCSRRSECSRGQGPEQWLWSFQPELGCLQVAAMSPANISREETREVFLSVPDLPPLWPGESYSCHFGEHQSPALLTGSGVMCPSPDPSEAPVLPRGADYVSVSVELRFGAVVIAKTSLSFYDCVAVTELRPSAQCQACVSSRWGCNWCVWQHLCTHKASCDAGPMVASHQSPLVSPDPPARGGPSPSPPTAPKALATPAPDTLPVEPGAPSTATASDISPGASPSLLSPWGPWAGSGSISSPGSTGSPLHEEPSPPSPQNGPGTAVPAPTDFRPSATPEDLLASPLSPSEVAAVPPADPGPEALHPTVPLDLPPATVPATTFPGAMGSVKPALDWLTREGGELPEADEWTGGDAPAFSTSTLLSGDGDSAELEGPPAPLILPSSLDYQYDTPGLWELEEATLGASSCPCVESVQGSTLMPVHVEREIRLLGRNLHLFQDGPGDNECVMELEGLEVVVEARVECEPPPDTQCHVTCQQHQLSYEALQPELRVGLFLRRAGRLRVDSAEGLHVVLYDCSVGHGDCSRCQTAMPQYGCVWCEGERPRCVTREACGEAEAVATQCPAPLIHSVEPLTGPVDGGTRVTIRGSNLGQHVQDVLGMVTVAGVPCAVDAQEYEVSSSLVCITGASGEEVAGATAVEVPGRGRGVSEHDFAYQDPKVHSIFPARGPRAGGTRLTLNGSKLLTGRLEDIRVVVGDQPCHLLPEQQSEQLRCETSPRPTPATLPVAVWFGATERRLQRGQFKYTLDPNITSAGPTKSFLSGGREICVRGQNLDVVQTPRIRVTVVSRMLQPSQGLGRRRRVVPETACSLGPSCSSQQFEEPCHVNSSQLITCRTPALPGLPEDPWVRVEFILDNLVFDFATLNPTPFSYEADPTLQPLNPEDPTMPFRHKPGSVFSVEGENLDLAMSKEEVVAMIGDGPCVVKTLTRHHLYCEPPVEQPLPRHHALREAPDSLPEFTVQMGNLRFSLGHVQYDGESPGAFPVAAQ
In words: ELISA; competition LRA ELISA; Plexin B1-His on HIS-Select nickel-coated microplates, 2 ug/mL Sema4D with increasing concentrations of Sema4A starting at 2 ug/mL; OD compared with Sema4D alone; both purified.

Test [2] deals with T1, recombinant human Plexin B1 with a 6X His tag at C-terminus (human). In words: ELISA; direct LRA ELISA; Plexin B1-His (10 ug/mL) captured on HIS-Select nickel-coated microplates in Tris buffer overnight, Sema4 in solution in varying doses from 2 ug/mL; both purified. (ELISA stands for enzyme-linked immunosorbent assay.)

With “recombinant human Sema4D-Fc (from UniProt Q92854 22-734) (Fc fusion)”, the binding entry in test [1] and in test [2] was “binds” each time.

For the origin of these results see PMC8953949, “Identifying Function Determining Residues in Neuroimmune Semaphorin 4A” (International Journal of Molecular Sciences, 2022).
